Laboratory results from patent US20080090827A1 (Artesian Therapeutics, Inc., priority 2004, published 2008).
Some entries share one result that the patent states for a list of compounds.

Molecular target: beta-receptors from rat cortical membranes
Assay: Radioligand binding for non-specific β-receptor activity ([3H]DHA)
Conditions: read-out: non-specific beta-adrenergic receptor IC50

Row | Structure (SMILES) | IC50
1 | CC(C)NCC(O)COc1ccc(CCOc2ccc(C3=NNC(=O)CC3)cc2Cl)cc1 (stereo not drawn) [Compound 37a, 6-(3-Chloro-4-{2-[4-(2-hydroxy-3-isopropylamino-propoxy)-phenyl]-ethoxy}-phenyl)-4,5-dihydro-2H-pyridazin-3-one] | < 1 µM
2 | CC(C)(C)NCC(O)COc1ccc(CNC(=O)COc2ccc(C3=NNC(=O)CC3)cc2Cl)cc1 (stereo not drawn) [Compound 17b, N-[4-(3-tert-Butylamino-2-hydroxy-propoxy)-benzyl]-2-[2-chloro-4-(6-oxo-1,4,5,6-tetrahydro-pyridazin-3-yl)-phenoxy]-acetamide] | < 1 µM
3 | CC(C)(C)NCC(O)COc1ccc(CCOc2ccc(C3=NNC(=O)CC3)cc2Cl)cc1 (stereo not drawn) [Compound 37b, 6-(4-{2-[4-(3-tert-Butylamino-2-hydroxy-propoxy)-phenyl]-ethoxy}-3-chloro-phenyl)-4,5-dihydro-2H-pyridazin-3-one] | < 1 µM
4 | CC(C)(C)NC[C@H](O)COc1ccc(CCNC(=O)COc2ccc(C3=NNC(=O)CC3)cc2)cc1 [Compound 21, N-{2-[4-((S)-3-tert-butylamino-2-hydroxy-propoxy)-phenyl]-ethyl}-2-[4-(6-oxo-1,4,5,6-tetrahydro-pyridazin-3-yl)-phenoxy]-acetamide] | < 1 µM
5 | CC(C)NCC(O)COc1ccc(CNC(=O)COc2ccc(C3=NNC(=O)CC3)cc2Cl)cc1 (stereo not drawn) [Compound 17a, 2-[2-Chloro-4-(6-oxo-1,4,5,6-tetrahydro-pyridazin-3-yl)-phenoxy]-N-[4-(2-hydroxy-3-isopropylamino-propoxy)-benzyl]-acetamide] | < 1 µM
6 | CC(C)NCC(O)COc1ccc(CCNC(=O)COc2ccc(C3=NNC(=O)CC3)cc2Cl)cc1 (stereo not drawn) [Compound 17c, 2-[2-Chloro-4-(6-oxo-1,4,5,6-tetrahydro-pyridazin-3-yl)-phenoxy]-N-{2-[4-(2-hydroxy-3-isopropylamino-propoxy)-phenyl]-ethyl}-acetamide] | < 1 µM
